# Source: the supplement of paper PMC4635364
# Counter-ions that a name gives are not always drawn. The list shows a part of the results. Repeats in this data set agree poorly, so a single value says little.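 Cells: ReNCell VM human fetal ventral-midbrain neural progenitors, differentiated mitogen-free. Blinded raters compared doublecortin-stained (early neurons) or tyrosine hydroxylase-stained (dopaminergic neurons) images with untreated wells, where 0 means no change. After repeats and both raters were averaged, compounds scoring 2 or above became hits for retesting.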
# Assays:
# ReNCell VM [1] = experiment: neuronal differentiation score (DCX+ cell fraction vs untreated, manual image score) (score (-3 to 3)); higher = more neuronal differentiation; conditions: 2 uM, 2 weeks
# ReNCell VM [2] = experiment: dopaminergic neuron differentiation score (TH+ cell fraction vs untreated, manual image score) (score (0 to 3)); higher = more TH+ dopaminergic neuron differentiation; conditions: 2 uM, 4 weeks, BDNF 10 ng/ml + GDNF 10 ng/ml
smiles,measurement,setting,value
CN1[C@@H](C[C@@H](O)c2ccccc2)CCC[C@H]1C[C@H](O)c1ccccc1 [Lobelanidine hydrochloride],neuronal differentiation score,ReNCell VM [1]; library: Phytochemical,inactive: 0
same,dopaminergic neuron differentiation score,ReNCell VM [2]; library: Phytochemical,inactive: 0
CC1=C(O)C(=O)C=C2C1=CC=C1[C@@]2(C)CC[C@@]2(C)[C@@H]3C[C@](C)(C(=O)O)CC[C@]3(C)CC[C@]12C,neuronal differentiation score,ReNCell VM [1]; library: Spectrum,inactive: 0
same,dopaminergic neuron differentiation score,ReNCell VM [2]; library: Spectrum,inactive: 0
CS(=O)(=O)Nc1ccc(Cc2noc(-c3ccc4[nH]cc(CCN)c4c3)n2)cc1,neuronal differentiation score,ReNCell VM [1]; library: Tocriscreen,inactive: 0
same,dopaminergic neuron differentiation score,ReNCell VM [2]; library: Tocriscreen,inactive: 0
C[N+]12CCC(CC1)C(OC(=O)C(O)(c1ccccc1)c1ccccc1)C2 (stereo not given) [Clidinium bromide],neuronal differentiation score,ReNCell VM [1]; library: Prestwick,inactive: 0
same,dopaminergic neuron differentiation score,ReNCell VM [2]; library: Prestwick,inactive: 0
O=C(O)C1CSC(c2cccnc2)N1 (stereo not given) [2-pyridin-3-yl-thiazolidine-4-carboxylic acid],neuronal differentiation score,ReNCell VM [1]; library: Natural,inactive: 0
same,dopaminergic neuron differentiation score,ReNCell VM [2]; library: Natural,inactive: 0
C[N+]1([O-])[C@@H]2C[C@@H](OC(=O)[C@H](CO)c3ccccc3)C[C@H]1[C@@H]1O[C@@H]12 (stereo not given in full) [Scopolamin-N-oxide hydrobromide],neuronal differentiation score,ReNCell VM [1]; library: Prestwick,inactive: 0
same,dopaminergic neuron differentiation score,ReNCell VM [2]; library: Prestwick,inactive: 0
CCN1C[C@]2(C)CC[C@H](OC)[C@@]34C1[C@]1(OCO[C@@]15C[C@H](OC)[C@H]1C[C@]3(O)[C@@H]5[C@H]1OC)[C@@H](OC(C)=O)[C@H]24 [Deltaline],neuronal differentiation score,ReNCell VM [1]; library: Phytochemical,inactive: 0
same,dopaminergic neuron differentiation score,ReNCell VM [2]; library: Phytochemical,inactive: 0
CC(O)(CS(=O)(=O)c1ccc(F)cc1)C(=O)Nc1ccc(C#N)c(C(F)(F)F)c1 (stereo not given),neuronal differentiation score,ReNCell VM [1]; library: Spectrum,inactive: 0
same,dopaminergic neuron differentiation score,ReNCell VM [2]; library: Spectrum,inactive: 0
CN1C[C@H](C(=O)N[C@]2(C)O[C@@]3(O)[C@@H]4CCCN4C(=O)[C@H](Cc4ccccc4)N3C2=O)C[C@@H]2c3cccc4[nH]cc(c34)C[C@H]21 [Dihydroergotamine tartrate],neuronal differentiation score,ReNCell VM [1]; library: Prestwick,inactive: 0
same,dopaminergic neuron differentiation score,ReNCell VM [2]; library: Prestwick,inactive: 0
N[C@H](CCCCCP(=O)(O)O)C(=O)O [D(-)-2-Amino-7-phosphonoheptanoic acid],neuronal differentiation score,ReNCell VM [1]; library: LOPAC,inactive: 0
same,dopaminergic neuron differentiation score,ReNCell VM [2]; library: LOPAC,inactive: 0
C[C@H]1C(=O)O[C@@H]2CCN3CC=C(COC(=O)[C@](C)(O)[C@]1(C)O)[C@H]23 [Monocrotaline],neuronal differentiation score,ReNCell VM [1]; library: Phytochemical,inactive: 0
same,dopaminergic neuron differentiation score,ReNCell VM [2]; library: Phytochemical,inactive: 0
O=c1[nH]c2ccccc2n1CCCN1CCC(n2c(=O)[nH]c3cc(Cl)ccc32)CC1,neuronal differentiation score,ReNCell VM [1]; library: Spectrum,inactive: 0
same,dopaminergic neuron differentiation score,ReNCell VM [2]; library: Spectrum,inactive: 0
CC(=O)O[C@H]1CC[C@@]2(C)[C@H](CC[C@@H]3[C@@H]2CC[C@]2(C)[C@@H](C4=CC(=O)OC4)[C@@H](OC(C)=O)C[C@]32O)C1,neuronal differentiation score,ReNCell VM [1]; library: Spectrum,inactive: 0
same,dopaminergic neuron differentiation score,ReNCell VM [2]; library: Spectrum,inactive: 0
C[C@@H]1C[C@H](O)[C@@]2(O)[C@]13CC(=O)OC[C@@]2(C)[C@@](C)(O)C(=O)C3,neuronal differentiation score,ReNCell VM [1]; library: Spectrum,inactive: 0
same,dopaminergic neuron differentiation score,ReNCell VM [2]; library: Spectrum,inactive: 0
c1ccc2c(N3CCNCC3)cccc2c1 [1-(1-Naphthyl)piperazine hydrochloride],neuronal differentiation score,ReNCell VM [1]; library: LOPAC,inactive: 0
same,dopaminergic neuron differentiation score,ReNCell VM [2]; library: LOPAC,inactive: 0
COC1(C[S@+]([O-])c2ccccc2)CCN(CCc2c[nH]c3ccc(F)cc23)CC1,neuronal differentiation score,ReNCell VM [1]; library: Tocriscreen,inactive: 0
same,dopaminergic neuron differentiation score,ReNCell VM [2]; library: Tocriscreen,inactive: 0
O=P1(NCCCl)OCCCN1CCCl (stereo not given),neuronal differentiation score,ReNCell VM [1]; library: Spectrum,inactive: 0
same,dopaminergic neuron differentiation score,ReNCell VM [2]; library: Spectrum,inactive: 0
O=C1C2CC=CCC2C(=O)N1SC(Cl)(Cl)Cl (stereo not given),neuronal differentiation score,ReNCell VM [1]; library: Spectrum,inactive: 0
same,dopaminergic neuron differentiation score,ReNCell VM [2]; library: Spectrum,inactive: 0
CC(C)(C)NCC(O)c1cc(Cl)c(N)c(Cl)c1 (stereo not given) [Clenbuterol hydrochloride],neuronal differentiation score,ReNCell VM [1]; library: Prestwick,inactive: 0
same,dopaminergic neuron differentiation score,ReNCell VM [2]; library: Prestwick,inactive: 0
"C[C@]12CCC(=O)C[C@@H]1CC[C@@H]1[C@@H]2CC[C@]2(C)C(=O)CC[C@@H]12 [5alpha-ANDROSTAN-3,17-DIONE]",neuronal differentiation score,ReNCell VM [1]; library: Spectrum,inactive: 0
same,dopaminergic neuron differentiation score,ReNCell VM [2]; library: Spectrum,inactive: 0
C/C=C(/C)C(=O)O[C@H]1CC[C@@]2(C)[C@@H]3CC[C@H]4[C@]5(O)C[C@H](O)[C@@]6(O)[C@@H](CN7C[C@@H](C)CC[C@H]7[C@@]6(C)O)[C@]5(O)C[C@]42O[C@]13O,neuronal differentiation score,ReNCell VM [1]; library: Spectrum,inactive: 0
same,dopaminergic neuron differentiation score,ReNCell VM [2]; library: Spectrum,inactive: 0
CN1C2CCC1CC(O)C2 (stereo not given) [Tropine],neuronal differentiation score,ReNCell VM [1]; library: Phytochemical,inactive: 0
same,dopaminergic neuron differentiation score,ReNCell VM [2]; library: Phytochemical,inactive: 0
Cc1cc(OC(=O)N2CCCCC2)c(C(C)C)cc1[N+](C)(C)C,neuronal differentiation score,ReNCell VM [1]; library: Spectrum,inactive: 0
same,dopaminergic neuron differentiation score,ReNCell VM [2]; library: Spectrum,inactive: 0
COc1ccc2[nH]c3c(c2c1)CCN=C3C [Methoxy-6-harmalan],neuronal differentiation score,ReNCell VM [1]; library: Phytochemical,inactive: 0
same,dopaminergic neuron differentiation score,ReNCell VM [2]; library: Phytochemical,inactive: 0
C[C@H]1CC[C@@H]2N(C1)C[C@H]1[C@@H]3C[C@H]4[C@@H](CC(=O)[C@H]5C[C@@H](O)CC[C@@]54C)[C@@H]3CC[C@H]1[C@]2(C)O [Imperialine],neuronal differentiation score,ReNCell VM [1]; library: Phytochemical,inactive: 0
same,dopaminergic neuron differentiation score,ReNCell VM [2]; library: Phytochemical,inactive: 0
"Cc1c(C(=O)c2cccc3ccccc23)c2cccc3c2n1[C@H](CN1CCOCC1)CO3 [( R)-(+)-WIN 55,212-2 mesylate]",neuronal differentiation score,ReNCell VM [1]; library: LOPAC,inactive: 0
same,dopaminergic neuron differentiation score,ReNCell VM [2]; library: LOPAC,inactive: 0
CNC(=O)Oc1ccc2c(c1)[C@]1(C)CCN(C)[C@@H]1N2C [(-)-Physostigmine],neuronal differentiation score,ReNCell VM [1]; library: LOPAC,inactive: 0
same,dopaminergic neuron differentiation score,ReNCell VM [2]; library: LOPAC,inactive: 0
Cc1nnc2n1-c1sc(CCC(=O)N3CCOCC3)cc1C(c1ccccc1Cl)=NC2,neuronal differentiation score,ReNCell VM [1]; library: Tocriscreen,inactive: 0
same,dopaminergic neuron differentiation score,ReNCell VM [2]; library: Tocriscreen,inactive: 0
NC(N)=Nc1ccc2[nH]c3c(c2c1)C[C@@]1(O)[C@H]2Cc4ccc(O)c5c4[C@@]1(CCN2CC1CC1)[C@H]3O5 [Guanidinyl-naltrindole di-trifluoroacetate],neuronal differentiation score,ReNCell VM [1]; library: LOPAC,inactive: 0
same,dopaminergic neuron differentiation score,ReNCell VM [2]; library: LOPAC,inactive: 0
C[C@]12Cc3c[nH]nc3C[C@@H]1CC[C@@H]1[C@@H]2CC[C@@]2(C)[C@H]1CC[C@]2(C)O [Stanozolol],neuronal differentiation score,ReNCell VM [1]; library: Prestwick,inactive: 0
same,dopaminergic neuron differentiation score,ReNCell VM [2]; library: Prestwick,inactive: 0

# Quoted at random: three entries already listed.
smiles,measurement,setting,value
N[C@H](CCCCCP(=O)(O)O)C(=O)O [D(-)-2-Amino-7-phosphonoheptanoic acid],dopaminergic neuron differentiation score,ReNCell VM [2]; library: LOPAC,inactive: 0
C[C@]12Cc3c[nH]nc3C[C@@H]1CC[C@@H]1[C@@H]2CC[C@@]2(C)[C@H]1CC[C@]2(C)O [Stanozolol],dopaminergic neuron differentiation score,ReNCell VM [2]; library: Prestwick,inactive: 0
O=C1C2CC=CCC2C(=O)N1SC(Cl)(Cl)Cl (stereo not given),dopaminergic neuron differentiation score,ReNCell VM [2]; library: Spectrum,inactive: 0

# For convenience, part of the list above:
smiles,measurement,setting,value
Cc1nnc2n1-c1sc(CCC(=O)N3CCOCC3)cc1C(c1ccccc1Cl)=NC2,neuronal differentiation score,ReNCell VM [1]; library: Tocriscreen,inactive: 0
same,dopaminergic neuron differentiation score,ReNCell VM [2]; library: Tocriscreen,inactive: 0
